Primary screen of a compound library

Each number is a percent effect as filed. The controls that fix the scale are not given in the record; negative values are as filed. Compounds were drawn at random from those tested, without regard to their results. A dash means the value is not listed here; it may have been measured.

Mtb growth Cornell: 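Whole-cell assay for inhibitors of Mycobacterium tuberculosis growth, labelled Cornell in the record; the read-out is not stated. The concentration is filed as 10 mM, unlikely as a test dose, so the dose is not known. Higher means stronger inhibition (inferred from two other growth screens of the library). Size under these conditions: about 53,000 compounds, about 900 of them at 50% or above in at least one test.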
Mtb heat-shock: 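Assay on Mycobacterium tuberculosis, filed only as a heat shock assay from Cornell; the read-out is not stated. The concentration is filed as 10 mM, unlikely as a test dose, so the dose is not known. The record gives no direction; compounds that gave an IC50 in retests scored well above the rest, so higher reads as stronger inhibition. Of about 69,000 compounds tested this way, about 930 (1.4%) reached 50% or more in at least one test.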

| # | compound | Mtb growth Cornell | Mtb heat-shock |
|---|---|---|---|
| 1 | `Cc1nccn1C1CCCN(C(=O)c2cc3ccccc3[nH]2)C1` (stereo unspecified) | -52.54 | -14.31 |
| 2 | `CC(=O)N1CCC(Nc2cccc(OC(F)F)c2C)CC1` | 7.025 | 9.237 |
| 3 | `Cc1cc2c(=O)n3c(nc2s1)CCN(C(=O)c1cn(C)nc1C)CC3` | -39.64 | -6.814 |
| 4 | `O=C(O)C(F)(F)F.[H][C@@]12CCCO[C@]1([H])[C@H](N(C)Cc1ccco1)CN(C(=O)N(C)C)C2` | 33.71 | -33.36 |
| 5 | `O=C(N1CCOCC1CO)C1(c2cccs2)CCCC1` (stereo unspecified) | 7.092 | -16.53 |
| 6 | `CCN1CCN(C(=O)C2CCCc3[nH]ncc32)CC1` (stereo unspecified) | -21.73 | -3.527 |
| 7 | `COc1ccc(OCCNCc2c(C)nn(C)c2N(C)C)cc1.Cl` | - | 36.3 |
| 8 | `CC(=O)c1cc(CN2C[C@@H](NS(=O)(=O)N(C)C)[C@H](C(C)C)C2)cs1` | - | -4.43 |
| 9 | `Cc1cc(N)nc(C2(C)CCCN2C(=O)c2cnccn2)n1` (stereo unspecified) | -43.85 | -28.13 |
| 10 | `Fc1ccc(CNCc2cc(Br)c3c(c2)OCO3)cc1` | - | -22.63 |
| 11 | `[H][C@@]12COC[C@@H](CC(=O)N3CCCO3)[C@]1([H])CN(S(C)(=O)=O)C2` | -51.95 | 9.089 |
| 12 | `CC(C)c1nc(CN2CCc3onc(-c4cccc(F)c4)c3C2)no1` | 1.874 | 35.68 |
| 13 | `CSCc1noc(Cn2ncn3cccc3c2=O)n1` | - | -15.97 |
| 14 | `O=C(O)C(F)(F)F.O=C(O)C(F)(F)F.O=C(O)C(F)(F)F.O=C(O)C(F)(F)F.[H][C@@]12CN(Cc3cccnc3)C[C@]1([H])[C@@H](OC)CCN2Cc1cccc(C)n1` | 22.77 | -21.67 |
| 15 | `CC(CCN1CCCC1=O)NCc1cnc(C2CCC2)s1` (stereo unspecified) | -7.43 | 6.815 |
| 16 | `COCCCNC(=O)Nc1ncc(-c2cccc(OC)c2)n1CCOC` | 20.98 | -7.26 |
| 17 | `Cc1cc(C)n(CC2CN(CC(=O)Nc3cccnc3)CCO2)n1` (stereo unspecified) | -51.87 | -20.85 |
| 18 | `CN(C)c1nc(N2CCCC2)nc2c1CCN(C(=O)c1ccoc1)CC2` | -30.48 | -20.45 |
| 19 | `Cc1nc2ccccc2n1Cc1cc(C(=O)N2C[C@@H](C)O[C@@H](C)C2)no1` | - | -12.99 |
| 20 | `CN(C)C(=O)N1CCC2(CC1)NC(=O)c1ccccc12.Cl` | 22.68 | -31.48 |
| 21 | `COc1ccc(F)cc1CN1CCCC(c2cc(C(N)=O)[nH]n2)C1` (stereo unspecified) | - | -6.97 |
| 22 | `Cc1nc2sccn2c1C(=O)N1CCc2c(nc(N(C)C)[nH]c2=O)C1` | - | -0.7778 |
| 23 | `CC(C)N1CCCC(C(=O)N2CCN(c3nsc4ccccc34)CC2)C1` (stereo unspecified) | - | -3.962 |
| 24 | `Cc1cnc(N2CCCC3(CCCN3CC(=O)N(C)C)C2)nc1.O=C(O)C(F)(F)F` (stereo unspecified) | 20.14 | -22.1 |
| 25 | `CCc1nc(C2CCCN2CCCS(=O)(=O)c2ccccc2)no1` (stereo unspecified) | 6.165 | 38.22 |
| 26 | `NC(=O)COc1cccc(C(=O)N2CCCC(n3ccnc3)C2)c1` (stereo unspecified) | -8.715 | 8.187 |
| 27 | `Cc1c(C(=O)O)sc2nc(C(F)(F)F)ccc12` | 11.51 | 23.53 |
| 28 | `[H][C@@]12CN(Cc3ccccc3)CC[C@]1([H])N(C(C)=O)C[C@H]2c1ccsc1` | - | 5.71 |
| 29 | `CCOCCCNC(=O)c1cn(CC)nc1C` | - | 17.53 |
| 30 | `COCC(=O)N1CCc2ccc(=O)n(CC3CC3)c2CC1` | 16.3 | 15.75 |
| 31 | `CC(C)COCC(NC(=O)Cc1ccn[nH]1)c1ccco1` (stereo unspecified) | - | -16.58 |
| 32 | `Nc1ncnc2c1ncn2[C@H]1CCN(Cc2ccsc2)CC[C@@H]1O` | - | -9.844 |
| 33 | `Cc1nc(C2CCCN(C(=O)c3c(C)nn4cccnc34)C2)no1` (stereo unspecified) | - | 3 |
| 34 | `CCC[C@H]1CN(S(=O)(=O)c2cc(C)ccc2F)C[C@@H]1N` | 41.07 | -6.907 |
| 35 | `[H][C@]12CC[C@@]3(N=C(C)N(CC(C)C)C3=O)[C@@]1([H])CN(S(=O)(=O)N(C)C)C2` | 0.8832 | 3.841 |
| 36 | `Nc1nccc(C2CCCCN2Cc2cccc(F)c2)n1` (stereo unspecified) | -2.707 | -22.11 |
| 37 | `CC(C)(CNC(=O)NCCc1ccn(-c2ccccc2)n1)C(N)=O` | - | -20.41 |
| 38 | `Cc1ncsc1CCN(C)C(=O)C(c1cccnc1)N1CCOCC1` (stereo unspecified) | 22.22 | 0.6557 |
| 39 | `N#Cc1cnc(NC2CCN(C(=O)C3CCCCC3)CC2)c(Cl)c1` | 37.5 | 11.81 |
| 40 | `COCCNC(=O)c1nnn(Cc2ccccc2)c1OC` | - | -13 |
| 41 | `O=C(O)C(F)(F)F.[H][C@@]12CN(S(=O)(=O)c3ccc(C#N)cc3)C[C@]1([H])OCCN2C` | 1.887 | 0.2767 |
| 42 | `COc1ccc(-c2noc([C@@H]3C[C@@H](O)CN3C3CCOCC3)n2)cc1` | -16.48 | -36.39 |
| 43 | `CCN(c1ccc(C(=O)N2CCCC2c2cnn(C)c2)cn1)C(C)C` (stereo unspecified) | -23.68 | -28.45 |
| 44 | `CN(Cc1ccccn1)C(=O)CC1CCOc2ccccc21` (stereo unspecified) | - | -3.495 |
| 45 | `CCn1cnnc1CNC(=O)C1COc2ccc(Cl)cc2C1` (stereo unspecified) | 24.07 | 19.94 |
| 46 | `[H][C@@]12CCN(Cc3ccc4c(c3)OCO4)C[C@@]1([H])O[C@@H](c1noc(C)n1)C2` | -15.07 | 9.76 |
| 47 | `Cc1nnc(CN2CCCC2c2cccc(Br)c2)o1` (stereo unspecified) | -11.27 | -29.83 |
| 48 | `COC(=O)CCN(C)C(=O)c1ccc(-c2cscn2)cc1` | 8.533 | -2.684 |

Once more, the final 5:

| compound | Mtb growth Cornell | Mtb heat-shock |
|---|---|---|
| `CN(Cc1ccccn1)C(=O)CC1CCOc2ccccc21` (stereo unspecified) | - | -3.495 |
| `CCn1cnnc1CNC(=O)C1COc2ccc(Cl)cc2C1` (stereo unspecified) | 24.07 | 19.94 |
| `[H][C@@]12CCN(Cc3ccc4c(c3)OCO4)C[C@@]1([H])O[C@@H](c1noc(C)n1)C2` | -15.07 | 9.76 |
| `Cc1nnc(CN2CCCC2c2cccc(Br)c2)o1` (stereo unspecified) | -11.27 | -29.83 |
| `COC(=O)CCN(C)C(=O)c1ccc(-c2cscn2)cc1` | 8.533 | -2.684 |

The values are deposited in ChEMBL (CHEMBL3988442, “University of Dundee, Small-Polar-MMV Screening Library” (2021)).